Reference: PubChem BioAssay (Tox21)
Inconclusive means that the source gave no clear call. Such entries were picked first, then a sample of the others. For part of these data: Potencies of inconclusive entries are doubtful fits and often do not repeat. The source made the active and inactive calls. Unless noted, calls follow the shape of the full dose curve.

Protein sequences, listed by entry. Tags and fused reporters are not part of them. Lines headed by an entry give the natural chain unless they say otherwise; changes in a name come on top.
UniProt P11229: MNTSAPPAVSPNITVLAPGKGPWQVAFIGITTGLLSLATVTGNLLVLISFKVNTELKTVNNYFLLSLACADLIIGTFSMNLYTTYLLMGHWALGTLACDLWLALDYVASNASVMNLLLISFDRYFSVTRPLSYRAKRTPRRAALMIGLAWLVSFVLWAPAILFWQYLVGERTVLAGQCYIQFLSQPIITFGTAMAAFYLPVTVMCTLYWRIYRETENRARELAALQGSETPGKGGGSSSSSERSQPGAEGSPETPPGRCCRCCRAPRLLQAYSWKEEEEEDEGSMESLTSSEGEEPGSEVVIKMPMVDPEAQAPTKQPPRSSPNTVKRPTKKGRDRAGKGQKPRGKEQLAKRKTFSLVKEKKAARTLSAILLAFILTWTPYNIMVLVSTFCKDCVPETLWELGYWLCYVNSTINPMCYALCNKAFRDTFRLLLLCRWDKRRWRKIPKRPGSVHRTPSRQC
UniProt P14416, whole entry, looked up: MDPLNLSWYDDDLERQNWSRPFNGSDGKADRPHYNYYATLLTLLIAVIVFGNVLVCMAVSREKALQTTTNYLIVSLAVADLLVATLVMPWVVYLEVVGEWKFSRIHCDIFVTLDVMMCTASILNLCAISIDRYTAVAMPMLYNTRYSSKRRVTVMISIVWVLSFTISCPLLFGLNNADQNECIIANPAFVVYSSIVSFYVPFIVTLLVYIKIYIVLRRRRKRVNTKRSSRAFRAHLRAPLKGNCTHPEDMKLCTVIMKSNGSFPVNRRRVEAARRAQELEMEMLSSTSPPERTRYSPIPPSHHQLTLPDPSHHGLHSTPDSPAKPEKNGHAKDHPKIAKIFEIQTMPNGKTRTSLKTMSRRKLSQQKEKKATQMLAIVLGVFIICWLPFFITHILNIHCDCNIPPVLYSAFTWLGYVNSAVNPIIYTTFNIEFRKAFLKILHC

Tests used:
[1] = Nuclear factor erythroid 2-related factor 2/antioxidant responsive element (Nrf2/ARE) small molecule agonists: luciferase reporter gene qHTS assay in human keratinocytes (AID 1919969); also: potency is read from the fitted curve at half-maximal effect; nearly all actives have a fitted effect of over 35% in size
[2] = p53 small molecule agonists, cell-based qHTS assay with human liver microsomes (AID 1963577); details: HCT-116 p53RE-bla with human liver microsomes, ratio, 16 h; activation: at 66 µM (top of the series) unless noted; also: potency is read from the fitted curve at half-maximal effect
In short: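 p53RE-bla cells; 5 h settle, 37 C/5% CO2; cpd + HLM 0.5 mg/mL + NADPH 0.5 mg/mL (final); 16 h 37 C; LiveBLAzer 2 h RT dark; fluorescence readout.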

[3] = p53 small molecule agonists, cell-based qHTS assay with rat liver microsomes (AID 1963578); details: HCT-116 p53RE-bla, beta-lactamase ratio, 16 h; activation: at 66 µM (top of the series) unless noted; also: potency is read from the fitted curve at half-maximal effect
In short: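 Rat liver microsome activation: microsomes 0.5 mg/mL, NADPH 0.5 mg/mL final; p53RE-bla cells, 16 h 37 C; LiveBLAzer readout, 2 h RT dark.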

[4] = p53 small molecule agonists, cell-based qHTS assay with human liver microsomes: qHTS cell viability counter screen (AID 1963579); also: nearly all actives have a fitted effect of over 45% in size; also: potency is read from the fitted curve at half-maximal effect
In short: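 Luminescent CellTiter-Glo read-out, 30 min at room temperature, gauged cytotoxicity in p53RE-bla cells exposed 16 h at 37 C to DMSO-dissolved compounds with metabolic activation by human liver microsomes and NADPH, each 0.5 mg/mL final.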

[5] = p53 small molecule agonists, cell-based qHTS assay with rat liver microsomes: qHTS cell viability counter screen (AID 1963580); also: potency is read from the fitted curve at half-maximal effect; nearly all actives have a fitted effect of over 45% in size
In short: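 Viability is assessed in parallel with the p53 reporter read: HCT-116 p53RE-bla cells receive compounds plus rat microsomes and NADPH (0.5 mg/mL final apiece), incubate 16 h at 37 C, and then CellTiter-Glo luminescence is recorded.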

[6] = biological target: Beta-2 adrenergic receptor (Homo sapiens) (UniProt P07550); assay: Adrenergic beta2 receptor (ADRB2) small molecule agonists, cell-based qHTS assay (AID 1963593); details: CHO-ADRB2 cells, cAMP HTRF, 30 min; activation: at 92.4 µM (top of the series) unless noted; also: potency is read from the fitted curve at half-maximal effect;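 as to activation: CHO cells stably overexpressing human ADRB2; % is scaled to controls: 0 for no effect and ±100 for the full control effect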
In short: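 CHO cells stably over-expressing ADRB2 were plated overnight at 37C, then dosed with compounds plus a stimulation mix containing 100uM IBMX and 25uM Ro-20-1724 for 0.5hr at room temperature. cAMP was measured by HTRF competition, 1hr.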

[7] = G protein-coupled receptor (GPCR) small molecule agonists, calcium flux assay: HEK293 wild type cell line counter screen (AID 1920065); also: potency is read from the fitted curve at half-maximal effect
In short: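 Counter-screen of the Tox21 10K library for non-specific calcium release: dye-loaded cells received compounds in DMSO and were monitored by kinetic fluorescence (480/540 nm, 3 min). Fifteen concentrations, run in triplicate.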

[8] = p53 small molecule agonists, cell-based qHTS assay (AID 1963582; active = well fitted activation curve with a large enough effect in the signal ratio in the repeat runs, not every such curve was filed as active; inconclusive = weak or mixed curves; the % refers to the signal ratio; also: potency is read from the fitted curve at half-maximal effect); details: HCT-116 p53RE-bla reporter, beta-lactamase FRET ratio, 16 h; activation: at 66 µM (top of the series) unless noted
In short: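 Quantitative HTS in p53RE-bla cells: after a 5 h settling period, compounds delivered in DMSO were left on cells for 16 h at 37 C, and reporter induction was measured as fluorescence following 2 h substrate loading.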

[9] = biological target: Muscarinic acetylcholine receptor M1 (Homo sapiens) (UniProt P11229); assay: Cholinergic receptor muscarinic 1 (CHRM1) small molecule antagonists, cell-based qHTS assay (AID 1963588); also: potency is read from the fitted curve at half-maximal effect; nearly all actives have a fitted effect of over 40% in size
In short: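 CHRM1-CHO calcium-flux assay, antagonist mode. Cells were seeded 18 h, dye-loaded 1 h at 37 C and given compound for 5 min at RT, then acetylcholine was added at 50nM. FDSS fluorescence was read 3 min; 15 concentrations, three runs.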

[10] = cAMP Responsive Elements (CRE) small molecule agonists, cell-based qHTS assay (AID 1963590); details: CRE-bla HEK293T, beta-lactamase FRET ratio, 3 h; activation: at 92.4 µM (top of the series) unless noted; also: potency is read from the fitted curve at half-maximal effect
In short: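 Agonist mode qHTS in CRE-bla HEK 293T cells: compounds dosed from DMSO for 3 h at 37 C/5% CO2, followed by LiveBLAzer B/G FRET substrate for 2 h at room temperature.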

[11] = cAMP Responsive Elements (CRE) small molecule antagonists, cell-based qHTS assay (AID 1963591; active = well fitted inhibition curve with a large enough effect in the signal ratio in the repeat runs, not every such curve was filed as active; inconclusive = weak or mixed curves, or effect the other way; the % refers to the signal ratio; also: potency is read from the fitted curve at half-maximal effect); details: CRE-bla HEK293T, beta-lactamase FRET ratio; activity change, negative = inhibition: at 92.4 µM (top of the series) unless noted
In short: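 Antagonist mode: test compounds are co-incubated with the adenylyl cyclase activator NKH477 (0.25 uM final) on CRE-bla HEK293T cells for 3 h at 37 °C, followed by LiveBLAzer substrate loading.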

[12] = biological target: Beta-2 adrenergic receptor (Homo sapiens) (UniProt P07550); assay: Adrenergic beta2 receptor (ADRB2) small molecule antagonists, cell-based qHTS assay (AID 1963592); details: CHO-ADRB2 cells, isoproterenol-stimulated cAMP HTRF ratio, 0.5 h; activity change, negative = inhibition: at 92.4 µM (top of the series) unless noted; also: potency is read from the fitted curve at half-maximal effect; nearly all actives have a fitted effect of over 50% in size
In short: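 Cells (CHO, stable ADRB2 overexpression) incubated 18-20hr at 37C; compounds added from DMSO; agonist mix (1nM isoproterenol, 100uM IBMX, 25uM Ro-20-1724) added; 0.5hr RT; d2-cAMP and anti-cAMP-cryptate added; 1hr RT; 665/615 nm read.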

[13] = biological target: D(2) dopamine receptor (Homo sapiens) (UniProt P14416); assay: Dopamine D2 receptor (DRD2) small molecule antagonists, cell-based qHTS assay (AID 1963595; active = well fitted inhibition curve with a large enough effect in the signal ratio in the repeat runs, with a control signal flat; inconclusive = weak or mixed curves, or effect the other way; the % refers to the signal ratio; also: % is scaled to controls: 0 for no effect and ±100 for the full control effect); details: HEK293-DRD2 cAMP HTRF antagonist mode; activity change, negative = inhibition: at 92.4 µM (top of the series) unless noted
In short: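 Stable D2 receptor HEK293 line, 24 h after seeding. Compound preincubated 10 min, then quinpirole (12 nM) with forskolin analogue NKH477 (200 nM), 30 min, room temperature. Detection by time-resolved FRET of cAMP.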

SMILES | Potency [1] | Potency [2] | Potency [3] | Potency [4] | Potency [5] | activation [6] | Potency [7] | Potency [8] | Potency [9] | Potency [10] | Potency [11] | Potency [12] | Potency [6] | activity change, negative = inhibition [13]
CCOP(=S)(OCC)SCS(=O)(=O)C(C)(C)C | inconclusive: 68.6 µM [activator] | active: 1.82 µM | inconclusive: 0.295 µM [fluorescent] | inactive | inconclusive: 45.8 µM [cytotoxic, single point] | inconclusive: 51.2% |  |  |  |  |  |  |  | 
CC(C)(C)c1cc([N+](=O)[O-])cc(C(C)(C)C)c1O | active: 34.4 µM |  |  |  |  |  | inconclusive: 4.36 µM [activator, full curve, poor fit] | inconclusive: 0.182 µM [rising, full curve, poor fit] | inconclusive: 47.2 µM [inhibitor, single point] | inconclusive: 27.3 µM [fluorescent, partial curve] | inconclusive: 34.4 µM [fluorescent, partial curve] | inconclusive: 54.5 µM [inhibitor, partial curve, poor fit] | inactive | 
COc1nn(CSP(=S)(OC)OC)c(=O)s1 | active: 68.6 µM | inconclusive: 0.814 µM [fluorescent, full curve] | inconclusive: 3.24 µM [fluorescent, full curve] | inconclusive: 2.57 µM [rising, partial curve, poor fit] | inconclusive: 45.8 µM [cytotoxic, single point] | inconclusive: 20.9% |  | inconclusive: 14.9 µM | inconclusive: 0.0011 µM [inhibitor] | inconclusive: 68.6 µM | inconclusive: 45.8 µM [fluorescent] |  |  | inconclusive: 0.496%
